Experimental data from the supplement of paper PMC10849652.
Some of the results follow.

Chains of the proteins cited; added tags and fusions are not shown. Lines headed by an entry give the natural chain unless they say otherwise; changes in a name come on top.
UniProt P35232: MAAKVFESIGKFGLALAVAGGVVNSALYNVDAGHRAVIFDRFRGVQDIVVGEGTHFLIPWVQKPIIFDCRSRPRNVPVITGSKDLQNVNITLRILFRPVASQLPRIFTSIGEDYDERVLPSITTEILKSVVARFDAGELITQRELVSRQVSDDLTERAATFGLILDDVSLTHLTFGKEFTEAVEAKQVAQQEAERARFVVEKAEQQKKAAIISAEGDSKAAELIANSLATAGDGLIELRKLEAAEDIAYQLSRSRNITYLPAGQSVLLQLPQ
UniProt Q8WUB8: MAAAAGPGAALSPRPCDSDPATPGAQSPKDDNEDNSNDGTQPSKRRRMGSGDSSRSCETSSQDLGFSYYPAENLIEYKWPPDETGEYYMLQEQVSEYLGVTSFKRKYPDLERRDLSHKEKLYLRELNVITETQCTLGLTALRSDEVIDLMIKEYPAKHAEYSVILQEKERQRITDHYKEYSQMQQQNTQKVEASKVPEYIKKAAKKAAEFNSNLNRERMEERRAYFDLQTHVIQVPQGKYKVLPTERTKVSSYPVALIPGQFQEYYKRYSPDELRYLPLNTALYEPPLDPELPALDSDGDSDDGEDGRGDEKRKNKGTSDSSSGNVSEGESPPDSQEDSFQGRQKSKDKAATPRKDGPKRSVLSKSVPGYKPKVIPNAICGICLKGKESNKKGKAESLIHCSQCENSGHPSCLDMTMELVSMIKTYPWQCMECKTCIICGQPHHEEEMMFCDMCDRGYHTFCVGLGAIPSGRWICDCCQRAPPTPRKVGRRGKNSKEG
UniProt Q9BTU6: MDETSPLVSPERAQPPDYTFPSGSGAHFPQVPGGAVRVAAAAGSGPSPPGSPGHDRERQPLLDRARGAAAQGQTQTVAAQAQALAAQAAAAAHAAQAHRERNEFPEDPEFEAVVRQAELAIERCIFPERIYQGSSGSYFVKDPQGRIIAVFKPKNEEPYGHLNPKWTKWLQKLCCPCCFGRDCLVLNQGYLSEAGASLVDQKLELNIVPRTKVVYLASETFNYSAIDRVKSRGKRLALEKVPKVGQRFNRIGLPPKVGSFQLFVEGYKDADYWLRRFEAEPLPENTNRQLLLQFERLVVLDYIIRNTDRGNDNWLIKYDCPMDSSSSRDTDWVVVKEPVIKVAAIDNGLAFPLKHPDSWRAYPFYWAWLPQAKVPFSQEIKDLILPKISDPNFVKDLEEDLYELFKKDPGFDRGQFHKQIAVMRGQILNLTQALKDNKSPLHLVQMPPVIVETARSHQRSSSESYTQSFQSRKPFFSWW
UniProt Q9Y446: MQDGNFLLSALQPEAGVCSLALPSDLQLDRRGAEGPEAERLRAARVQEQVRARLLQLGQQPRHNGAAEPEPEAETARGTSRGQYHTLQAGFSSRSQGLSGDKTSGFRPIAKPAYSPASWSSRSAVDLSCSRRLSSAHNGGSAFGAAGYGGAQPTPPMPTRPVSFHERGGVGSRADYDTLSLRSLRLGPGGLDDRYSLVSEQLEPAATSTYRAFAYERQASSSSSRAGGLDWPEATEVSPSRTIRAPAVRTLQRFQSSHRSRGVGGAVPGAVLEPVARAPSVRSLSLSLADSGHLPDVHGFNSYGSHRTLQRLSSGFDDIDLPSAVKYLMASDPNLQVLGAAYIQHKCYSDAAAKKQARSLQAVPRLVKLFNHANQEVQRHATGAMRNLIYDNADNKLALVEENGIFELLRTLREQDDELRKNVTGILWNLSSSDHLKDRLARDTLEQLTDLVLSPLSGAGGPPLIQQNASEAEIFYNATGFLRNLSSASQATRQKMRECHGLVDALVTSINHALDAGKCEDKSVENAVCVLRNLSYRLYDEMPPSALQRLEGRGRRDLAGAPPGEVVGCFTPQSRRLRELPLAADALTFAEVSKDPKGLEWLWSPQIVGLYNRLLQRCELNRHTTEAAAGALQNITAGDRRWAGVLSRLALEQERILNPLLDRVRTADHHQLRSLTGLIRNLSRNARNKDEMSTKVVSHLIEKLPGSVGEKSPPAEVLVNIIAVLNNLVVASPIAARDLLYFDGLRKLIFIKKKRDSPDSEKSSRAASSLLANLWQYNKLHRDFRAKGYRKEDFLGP
UniProt Q9BZM1: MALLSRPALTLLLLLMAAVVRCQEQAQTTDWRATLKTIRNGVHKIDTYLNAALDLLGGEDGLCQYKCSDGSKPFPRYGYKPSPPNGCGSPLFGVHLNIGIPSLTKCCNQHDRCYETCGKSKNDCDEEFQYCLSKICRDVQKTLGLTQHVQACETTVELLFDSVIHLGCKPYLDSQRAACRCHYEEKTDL
UniProt Q86T03: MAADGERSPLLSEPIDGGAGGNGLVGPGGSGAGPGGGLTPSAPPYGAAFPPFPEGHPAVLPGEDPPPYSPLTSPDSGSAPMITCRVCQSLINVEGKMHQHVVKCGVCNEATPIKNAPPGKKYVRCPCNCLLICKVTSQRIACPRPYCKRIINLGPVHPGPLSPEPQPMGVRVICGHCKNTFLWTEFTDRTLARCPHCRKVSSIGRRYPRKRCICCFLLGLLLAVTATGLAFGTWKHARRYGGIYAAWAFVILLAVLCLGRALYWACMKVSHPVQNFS
UniProt P53609, whole entry, looked up: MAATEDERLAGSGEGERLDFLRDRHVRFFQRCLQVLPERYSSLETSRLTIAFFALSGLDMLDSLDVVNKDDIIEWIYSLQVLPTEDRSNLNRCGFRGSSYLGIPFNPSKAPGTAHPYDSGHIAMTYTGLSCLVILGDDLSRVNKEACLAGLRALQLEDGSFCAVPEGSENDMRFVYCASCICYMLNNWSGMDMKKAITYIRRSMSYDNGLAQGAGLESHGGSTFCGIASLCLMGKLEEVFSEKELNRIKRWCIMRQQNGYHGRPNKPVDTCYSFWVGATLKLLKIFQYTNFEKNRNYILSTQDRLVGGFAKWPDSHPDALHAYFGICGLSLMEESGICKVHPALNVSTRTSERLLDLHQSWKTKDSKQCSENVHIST
UniProt Q8IV08: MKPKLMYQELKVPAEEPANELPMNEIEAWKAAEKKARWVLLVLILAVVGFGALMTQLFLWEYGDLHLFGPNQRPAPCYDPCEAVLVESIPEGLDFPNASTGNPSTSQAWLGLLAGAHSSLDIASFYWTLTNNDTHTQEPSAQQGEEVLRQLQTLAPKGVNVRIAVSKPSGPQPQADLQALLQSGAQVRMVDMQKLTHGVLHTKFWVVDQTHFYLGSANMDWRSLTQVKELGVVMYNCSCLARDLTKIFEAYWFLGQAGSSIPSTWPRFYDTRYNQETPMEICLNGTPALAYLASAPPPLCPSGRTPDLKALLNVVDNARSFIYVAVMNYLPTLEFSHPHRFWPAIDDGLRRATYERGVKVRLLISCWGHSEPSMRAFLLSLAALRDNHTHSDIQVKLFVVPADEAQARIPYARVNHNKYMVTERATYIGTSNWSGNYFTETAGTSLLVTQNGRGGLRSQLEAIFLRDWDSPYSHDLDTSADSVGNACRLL
UniProt O95394: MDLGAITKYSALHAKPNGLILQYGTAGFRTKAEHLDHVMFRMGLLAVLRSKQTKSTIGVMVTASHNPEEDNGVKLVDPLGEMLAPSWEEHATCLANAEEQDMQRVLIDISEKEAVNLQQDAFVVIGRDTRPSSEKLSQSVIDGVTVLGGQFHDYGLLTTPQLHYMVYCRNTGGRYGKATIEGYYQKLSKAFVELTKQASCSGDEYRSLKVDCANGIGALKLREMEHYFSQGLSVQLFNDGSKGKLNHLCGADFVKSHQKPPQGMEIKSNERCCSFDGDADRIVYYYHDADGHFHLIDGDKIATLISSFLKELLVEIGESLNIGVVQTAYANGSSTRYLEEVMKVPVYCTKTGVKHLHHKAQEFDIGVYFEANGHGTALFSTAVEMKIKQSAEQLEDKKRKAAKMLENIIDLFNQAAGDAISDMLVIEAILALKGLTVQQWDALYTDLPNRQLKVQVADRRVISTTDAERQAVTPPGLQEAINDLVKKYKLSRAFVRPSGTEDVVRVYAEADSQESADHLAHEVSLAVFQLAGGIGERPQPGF
UniProt Q99755: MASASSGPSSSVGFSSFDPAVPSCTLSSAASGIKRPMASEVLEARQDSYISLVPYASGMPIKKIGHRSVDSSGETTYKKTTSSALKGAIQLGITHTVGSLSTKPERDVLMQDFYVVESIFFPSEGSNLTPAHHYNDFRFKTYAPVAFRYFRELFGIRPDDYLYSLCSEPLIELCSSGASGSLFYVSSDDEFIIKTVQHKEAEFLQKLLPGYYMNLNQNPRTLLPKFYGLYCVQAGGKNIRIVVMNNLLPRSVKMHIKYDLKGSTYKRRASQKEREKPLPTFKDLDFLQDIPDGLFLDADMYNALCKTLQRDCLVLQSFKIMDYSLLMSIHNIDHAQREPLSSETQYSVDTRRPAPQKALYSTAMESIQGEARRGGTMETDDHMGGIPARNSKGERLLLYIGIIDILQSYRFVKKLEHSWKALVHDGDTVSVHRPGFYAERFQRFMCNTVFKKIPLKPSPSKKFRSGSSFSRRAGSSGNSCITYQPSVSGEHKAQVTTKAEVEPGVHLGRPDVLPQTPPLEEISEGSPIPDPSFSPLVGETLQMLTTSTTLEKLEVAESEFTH
UniProt Q96BK5: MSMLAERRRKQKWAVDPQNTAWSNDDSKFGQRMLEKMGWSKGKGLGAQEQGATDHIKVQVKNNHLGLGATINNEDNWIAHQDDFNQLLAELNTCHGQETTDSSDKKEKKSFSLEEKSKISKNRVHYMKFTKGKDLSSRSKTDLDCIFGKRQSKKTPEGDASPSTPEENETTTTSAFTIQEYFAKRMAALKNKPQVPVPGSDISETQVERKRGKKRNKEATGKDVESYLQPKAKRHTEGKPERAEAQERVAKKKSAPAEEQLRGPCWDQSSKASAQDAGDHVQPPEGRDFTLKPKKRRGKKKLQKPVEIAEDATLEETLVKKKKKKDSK
UniProt Q9NXJ5: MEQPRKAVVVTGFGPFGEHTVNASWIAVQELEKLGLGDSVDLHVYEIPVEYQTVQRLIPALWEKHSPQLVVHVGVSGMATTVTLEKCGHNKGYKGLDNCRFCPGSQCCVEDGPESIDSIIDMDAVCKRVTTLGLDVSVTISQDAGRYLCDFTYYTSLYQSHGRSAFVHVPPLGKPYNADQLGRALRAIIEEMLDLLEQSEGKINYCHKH
UniProt P60673: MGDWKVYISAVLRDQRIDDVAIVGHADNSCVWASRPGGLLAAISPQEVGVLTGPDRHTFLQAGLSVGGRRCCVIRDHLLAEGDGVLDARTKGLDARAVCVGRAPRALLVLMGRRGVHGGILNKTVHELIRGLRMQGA
UniProt Q5H8A4: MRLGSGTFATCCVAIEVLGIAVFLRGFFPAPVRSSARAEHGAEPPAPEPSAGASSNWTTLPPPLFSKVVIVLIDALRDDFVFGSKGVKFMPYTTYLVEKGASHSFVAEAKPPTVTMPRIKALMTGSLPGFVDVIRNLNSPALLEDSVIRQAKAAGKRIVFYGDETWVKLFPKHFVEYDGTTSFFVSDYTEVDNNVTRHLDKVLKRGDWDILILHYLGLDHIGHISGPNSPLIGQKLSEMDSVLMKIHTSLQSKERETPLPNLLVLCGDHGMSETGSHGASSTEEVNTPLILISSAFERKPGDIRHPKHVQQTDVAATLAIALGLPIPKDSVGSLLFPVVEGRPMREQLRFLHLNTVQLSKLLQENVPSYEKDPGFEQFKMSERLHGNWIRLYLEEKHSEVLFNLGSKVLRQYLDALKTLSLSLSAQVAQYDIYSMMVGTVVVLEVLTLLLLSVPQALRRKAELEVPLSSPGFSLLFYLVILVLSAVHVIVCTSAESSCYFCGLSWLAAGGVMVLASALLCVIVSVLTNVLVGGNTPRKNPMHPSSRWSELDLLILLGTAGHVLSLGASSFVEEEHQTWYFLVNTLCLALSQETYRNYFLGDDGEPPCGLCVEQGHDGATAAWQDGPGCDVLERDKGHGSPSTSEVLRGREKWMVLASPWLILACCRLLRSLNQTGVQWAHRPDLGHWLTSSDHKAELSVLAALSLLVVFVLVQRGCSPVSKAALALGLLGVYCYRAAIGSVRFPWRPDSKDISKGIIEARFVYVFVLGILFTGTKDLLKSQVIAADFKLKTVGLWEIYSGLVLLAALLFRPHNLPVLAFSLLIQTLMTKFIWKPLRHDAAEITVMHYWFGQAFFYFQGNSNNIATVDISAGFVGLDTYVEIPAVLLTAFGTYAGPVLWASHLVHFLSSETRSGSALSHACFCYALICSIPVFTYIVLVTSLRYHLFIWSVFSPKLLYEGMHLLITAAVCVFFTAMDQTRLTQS

Tests used:
Experiment in all cases: log2 fold change, soluble protein after heating vs DMSO (PISA); higher = thermal stabilisation; K562 cells, 10 uM, 30 min; active = over 0.2 and 3.5 SD of the protein, either way, in both replicates (recomputed)
[1] = compound: CN1CCN(CCOc2cc(OC3CCOCC3)c3c(Nc4c(Cl)ccc5c4OCO5)ncnc3c2)CC1 [saracatinib]
In short: (§1)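 Aliquots of K562 cells (2×10^6 cells/mL) treated with 10 μM compound for 30 min were heated for 3 min over 48°C-58°C. After pooling and extraction in PBS with 0.5% NP-40 at 4°C, soluble protein from a 21,000xg, 90 min spin was quantified by TMTpro 16plex LC-MS/MS with channel sums equalised. Thermal stability is expressed against control samples, from duplicates, as a log2 fold change.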

[2] = compound: CN1CCN(c2nc(C3=C(c4c[nH]c5ccccc45)C(=O)NC3=O)c3ccccc3n2)CC1 [sotrastaurin]
In short: as §1

[3] = compound: CN1CC[C@H](c2c(O)cc(O)c3c(=O)cc(-c4ccccc4Cl)oc23)[C@H](O)C1 [alvocidib]
In short: as §1

[4] = compound: CN1CCc2c(c3ccccc3n2Cc2ccc(C(=O)NO)cc2)C1 [Tubastatin A]
In short: as §1

[5] = compound: CNC(=O)C1=CC=CC=C1NC2=NC(=NC=C2Cl)NC3=C(C=C(C=C3)N4CCOCC4)OC
In short: as §1

[6] = compound: CNC(=O)c1ccc(Nc2ncc(C(F)(F)F)c(NCc3nccnc3N(C)S(C)(=O)=O)n2)cc1 [defactinib]
In short: as §1

[7] = compound: CNCc1ccc(-c2[nH]c3cc(F)cc4c3c2CCNC4=O)cc1 [rucaparib]
In short: as §1

[8] = compound: CNc1nc(-c2ccc3c(N)n[nH]c3c2)cc(N2C[C@@H](C(=O)NC3CCCCC3)CC[C@H]2C)n1
In short: as §1

[9] = compound: COC(=O)N[C@@H](C)CNc1nccc(-c2cn(C(C)C)nc2-c2cc(Cl)cc(NS(C)(=O)=O)c2F)n1 [encorafenib]
In short: as §1

[10] = compound: COC(=O)[C@H](CCSC)NC(=O)C1=C(C=C(C=C1)NC[C@H](CS)N)C2=CC=CC=C2
In short: as §1

[11] = compound: COC1=CC=C(C=C1)CN2C=CC3=C2C=C(C=C3)C(=O)NO
In short: as §1

[12] = compound: CON(C)C(=O)N1N=C(c2cc(F)ccc2F)S[C@@]1(CCCN)c1ccccc1 [filanesib]
In short: as §1

[13] = compound: CO[C@H]1C[C@@H]2CC[C@@H](C)[C@@](O)(O2)C(=O)C(=O)N2CCCC[C@H]2C(=O)O[C@H]([C@H](C)C[C@@H]2CC[C@H](n3cnnn3)[C@H](OC)C2)CC(=O)[C@H](C)/C=C(\C)[C@@H](O)[C@@H](OC)C(=O)[C@H](C)C[C@H](C)/C=C/C=C/C=C/1C [zotarolimus]
In short: as §1

[14] = compound: COc1cc(C(=O)O)ccc1NC(=O)[C@@H]1N[C@@H](CC(C)(C)C)[C@](C#N)(c2ccc(Cl)cc2F)[C@H]1c1cccc(Cl)c1F [idasanutlin]
In short: as §1

[15] = compound: COc1cc(Nc2ncc3c(n2)-c2ccc(Cl)cc2C(c2c(F)cccc2OC)=NC3)ccc1C(=O)O [alisertib]
In short: as §1

[16] = compound: COc1cc2nc(-c3cc(F)ccc3O)nc(N[C@@H]3CNC[C@H]3C(C)(C)O)c2cc1OC
In short: as §1

[17] = compound: COc1cc2ncnc(Nc3ccc(F)c(Cl)c3)c2cc1OCCCN1CCOCC1 [gefitinib]
In short: as §1

[18] = compound: COc1cccc2cc(-c3nc([C@H]4CC[C@H](C(=O)O)CC4)n4ncnc(N)c34)[nH]c12
In short: as §1

[19] = compound: CS(=O)(=O)CCNCc1ccc(-c2ccc3ncnc(Nc4ccc(OCc5cccc(F)c5)c(Cl)c4)c3c2)o1 [lapatinib]
In short: as §1

[20] = compound: CS(=O)(=O)N1CCN(Cc2cc3nc(-c4cccc5[nH]ncc45)nc(N4CCOCC4)c3s2)CC1 [pictilisib]
In short: as §1

Measured: log2 fold change

PHB (UniProt P35232)
inactive: [1] 0.035 | [2] 0.001 | [3] 0.022 | [4] -0.019 | [5] 0.016 | [6] 0.015 | [7] -0.036 | [8] -0.02 | [9] -0.009 | [10] -0.006 | [11] -0.078 | [12] -0.013 | [13] -0.014 | [14] 0.008 | [15] -0.025 | [16] -0.038 | [17] 0.002 | [18] 0.056 | [19] -0.003 | [20] -0.021

PHF10 (UniProt Q8WUB8)
inactive: [1] 0.041 | [2] 0.054 | [3] -0.163 | [4] -0.093 | [5] 0.225 | [6] -0.044 | [7] 0.067 | [8] -0.107 | [9] -0.086 | [10] -0.001 | [11] 0.041 | [12] 0.051 | [13] 0.034 | [14] 0.183 | [16] -0.02 | [19] 0.108 | [20] -0.174

PGM2 (UniProt Q96G03)
inactive: [1] 0.081 | [2] 0.02 | [3] 0.004 | [4] -0.017 | [5] -0.029 | [6] -0.007 | [7] -0.068 | [8] -0.013 | [9] 0.005 | [10] 0.015 | [11] 0.024 | [12] -0.034 | [13] -0.044 | [14] -0.02 | [15] -0.019 | [16] 0.011 | [17] -0.008 | [18] 0.027 | [19] -0.009 | [20] 0.018

PI4K2A (UniProt Q9BTU6)
inactive: [1] 0.058 | [2] 0.041 | [4] -0.008 | [5] -0.024 | [6] -0.014 | [7] -0.027 | [8] -0.11 | [9] 0.057 | [10] 0.02 | [11] 0.012 | [12] -0.066 | [13] -0.037 | [14] -0.044 | [15] -0.006 | [16] -0.015 | [17] -0.027 | [18] 0.005 | [19] 0 | [20] 0.049

PKP3 isoform 2 (UniProt Q9Y446)
inactive: [1] -0.278 | [2] -0.071 | [3] -0.021 | [4] 0.072 | [6] -0.166 | [7] 0.255 | [8] 0.108 | [9] 0.057 | [10] -0.127 | [11] 0.013 | [12] 0.343 | [13] 0.068 | [14] 0.119 | [15] 0.548 | [16] 0.014 | [18] -0.257 | [19] -0.054 | [20] -0.072

PKM (UniProt P14618)
inactive: [1] 0.012 | [2] 0.024 | [4] -0.004 | [5] -0.028 | [6] -0.01 | [7] -0.052 | [8] -0.007 | [9] -0.01 | [10] 0.011 | [11] 0 | [12] -0.048 | [13] -0.004 | [14] -0.04 | [15] -0.073 | [16] 0.012 | [17] -0.002 | [18] 0.054 | [19] -0.033 | [20] 0.026

PLA2G12A (UniProt Q9BZM1)
inactive: [1] -0.299 | [2] -0.072 | [3] 0.104 | [4] 0.065 | [5] 0.246 | [7] -0.027 | [8] 0.007 | [9] 0.059 | [12] -0.001 | [13] 0 | [14] -0.088 | [15] -0.046 | [16] -0.132 | [17] 0.019 | [18] 0.261 | [19] -0.122 | [20] -0.112

PIP4P1 isoform 2 (UniProt Q86T03)
inactive: [1] 0.014 | [2] -0.108 | [4] -0.005 | [5] 0 | [6] 0.039 | [7] -0.026 | [8] -0.059 | [9] -0.027 | [10] 0.015 | [11] 0.089 | [13] 0.004 | [14] 0.002 | [15] 0.032 | [16] -0.072 | [17] -0.018 | [18] -0.058 | [19] 0.06 | [20] -0.061
active: [12] -0.32

PGGT1B (UniProt P53609)
active: [10] 0.227
inactive: [1] 0 | [2] 0.121 | [4] -0.047 | [5] -0.025 | [6] 0.001 | [7] -0.032 | [8] -0.017 | [9] 0.013 | [11] -0.112 | [12] 0.047 | [13] -0.006 | [14] -0.025 | [15] -0.03 | [16] -0.031 | [17] -0.013 | [18] 0.058 | [19] -0.019 | [20] 0.037

PLD3 (UniProt Q8IV08)
inactive: [1] 0.034 | [2] 0.013 | [4] 0.004 | [5] 0.016 | [6] -0.005 | [7] -0.094 | [8] -0.037 | [9] 0.007 | [10] 0.009 | [11] -0.027 | [12] -0.131 | [13] -0.006 | [14] 0.001 | [15] -0.139 | [16] 0.019 | [17] 0.008 | [18] 0.027 | [19] -0.025 | [20] 0.045

PGM3 isoform 4 (UniProt O95394)
inactive: [1] -0.028 | [2] -0.018 | [4] 0.03 | [5] -0.011 | [6] -0.019 | [7] -0.013 | [8] 0.067 | [9] 0.024 | [10] -0.022 | [11] 0.052 | [12] -0.135 | [13] 0.007 | [14] -0.079 | [15] -0.007 | [16] 0 | [17] -0.028 | [18] -0.01 | [19] -0.014 | [20] -0.047

Random excerpt: 2 entries already listed, in no set order.
PHB (UniProt P35232)
inactive: [1] 0.035 | [2] 0.001 | [3] 0.022 | [4] -0.019 | [5] 0.016 | [6] 0.015 | [7] -0.036 | [8] -0.02 | [9] -0.009 | [10] -0.006 | [11] -0.078 | [12] -0.013 | [13] -0.014 | [14] 0.008 | [15] -0.025 | [16] -0.038 | [17] 0.002 | [18] 0.056 | [19] -0.003 | [20] -0.021

PGM3 isoform 4 (UniProt O95394)
inactive: [1] -0.028 | [2] -0.018 | [4] 0.03 | [5] -0.011 | [6] -0.019 | [7] -0.013 | [8] 0.067 | [9] 0.024 | [10] -0.022 | [11] 0.052 | [12] -0.135 | [13] 0.007 | [14] -0.079 | [15] -0.007 | [16] 0 | [17] -0.028 | [18] -0.01 | [19] -0.014 | [20] -0.047

The list goes on.

PIP5K1A (UniProt Q99755)
inactive: [1] -0.125 | [2] -0.228 | [3] 0.039 | [4] 0.047 | [6] 0.163 | [7] 0.119 | [8] -0.04 | [9] 0.038 | [10] 0.09 | [11] -0.014 | [12] 0 | [13] 0 | [14] 0.13 | [15] 0.086 | [16] -0.107 | [17] -0.026 | [18] 0.061 | [19] 0.021 | [20] 0.046

PINX1 (UniProt Q96BK5)
inactive: [1] 0.039 | [2] -0.092 | [3] 0.428 | [4] -0.018 | [5] 0 | [6] 0.478 | [8] 0.043 | [10] 0.035 | [11] -0.276 | [12] 0.414 | [13] -0.108 | [14] 0.237 | [15] -0.135 | [16] 0.122 | [17] -0.032 | [18] -0.207 | [19] 0.255 | [20] -0.372

PGPEP1 (UniProt Q9NXJ5)
inactive: [1] -0.061 | [2] -0.12 | [3] -0.172 | [5] -0.002 | [6] 0.497 | [7] 0 | [8] 0.204 | [9] 0.039 | [10] -0.013 | [11] 0.089 | [12] 0.039 | [13] 0.028 | [14] 0.086 | [15] -0.006 | [16] -0.104 | [18] 0.012 | [19] -0.02

PFN3 (UniProt P60673)
inactive: [1] 0.015 | [2] -0.448 | [3] 0.437 | [4] -0.022 | [6] -0.145 | [7] -0.272 | [8] -0.118 | [9] 0.053 | [10] -0.292 | [12] -0.014 | [13] -0.213 | [14] -0.329 | [15] -0.224 | [16] -0.129 | [18] 0.082 | [19] -0.047 | [20] -0.145

PKN1 isoform 2 (UniProt Q16512)
active: [2] -0.645
inactive: [1] -0.018 | [4] 0.026 | [5] -0.088 | [6] -0.121 | [7] 0.022 | [8] 0.026 | [9] 0.024 | [10] -0.014 | [11] 0.001 | [12] 0.019 | [13] 0.046 | [14] -0.05 | [15] -0.021 | [16] -0.217 | [17] 0.001 | [18] -0.044 | [19] -0.009 | [20] -0.007

PIGG (UniProt Q5H8A4)
active: [8] 0.27
inactive: [1] -0.02 | [2] -0.015 | [4] -0.037 | [5] 0.013 | [6] 0.175 | [7] -0.013 | [9] 0.07 | [10] -0.057 | [11] -0.01 | [12] -0.062 | [13] 0.073 | [14] 0.019 | [15] -0.048 | [16] 0.098 | [17] -0.122 | [18] 0.049 | [19] 0.046 | [20] 0.017
